PubChem BioAssay AID1224830, NIAID, 2016
In all, the deposit lists about 18,000 reagents; this is an unselected part. Of all reagents, about 2,900 (16%) got an active call. 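Calls are made per well; low scores hint the gene aids the LPS response, high scores that it dampens it.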 Repeated entries: four replicate wells of each siRNA pool.

Test: 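Regulators of TLR4 signalling towards TNF-alpha in macrophage-like cells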 (primary screen)
Cell system: human THP-1 monocytic leukaemia cells, TNF dual-luciferase reporter clone, PMA-differentiated to macrophage-like cells
Reagent: siRNA pool against human genes, 50 nM
Time to read-out: LPS for 4 h, given about 3 days after siRNA transfection
Conditions: bacterial LPS (TLR4 ligand), 10 ng/ml
Measurement: 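TNF firefly reporter luminescence divided by renilla, normalised to the plate median, then turned into a robust z-score for each replicate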
Scale: TNF reporter robust z-score: higher = stronger TNF reporter response to LPS
Active means: 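a well is active when its z-score exceeds 2.8 or falls below -1.5; control wells carry no call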

no.	gene	TNF reporter robust z-score	call
1	PPIP5K2	-0.8	inactive
2	PPIP5K2	-0.13	inactive
3	PPIP5K2	-0.24	inactive
4	PPIP5K2	0.21	inactive
5	RPS6KA2	0.63	inactive
6	RPS6KA2	1.88	inactive
7	RPS6KA2	2.3	inactive
8	RPS6KA2	2.37	inactive
9	ROCK1	-0.49	inactive
10	ROCK1	-0.53	inactive
11	ROCK1	-0.44	inactive
12	ROCK1	-0.47	inactive
13	FLT3LG	-0.14	inactive
14	FLT3LG	-0.09	inactive
15	FLT3LG	-0.79	inactive
16	FLT3LG	0.2	inactive
17	EI24	-0.91	inactive
18	EI24	-0.96	inactive
19	EI24	-1.15	inactive
20	EI24	-1.18	inactive
21	CDC23	0.89	inactive
22	CDC23	1.08	inactive
23	CDC23	0.02	inactive
24	CDC23	1.11	inactive
25	GRK4	-1.02	inactive
26	GRK4	-0.97	inactive
27	GRK4	-0.7	inactive
28	GRK4	-0.3	inactive
29	CSTB	-0.48	inactive
30	CSTB	-0.89	inactive
31	CSTB	-0.16	inactive
32	CSTB	0.54	inactive
33	ZNF93	-1.21	inactive
34	ZNF93	-1.55	active
35	ZNF93	-1.89	active
36	ZNF93	-1.67	active
37	IFT56	0.31	inactive
38	IFT56	-0.27	inactive
39	IFT56	0.78	inactive
40	IFT56	-0.8	inactive
41	ZNF674	-0.75	inactive
42	ZNF674	0.69	inactive
43	ZNF674	-0.36	inactive
44	ZNF674	0.66	inactive
45	OR10A5	-1.69	active
46	OR10A5	-1.81	active
47	OR10A5	-1.94	active
48	OR10A5	-1.93	active
49	COL11A2	1.52	inactive
50	COL11A2	1.05	inactive
51	COL11A2	-0.77	inactive
52	COL11A2	1.04	inactive
53	RAB1B	0.46	inactive
54	RAB1B	-0.72	inactive
55	RAB1B	-0.36	inactive
56	RAB1B	-0.14	inactive
57	GK2	-0.71	inactive
58	GK2	-1.2	inactive
59	GK2	-1.22	inactive
60	GK2	-1.03	inactive
61	SF3A2	0.24	inactive
62	SF3A2	0.96	inactive
63	SF3A2	0.67	inactive
64	SF3A2	0.69	inactive
65	RPL19P9	-0.53	inactive
66	RPL19P9	1.56	inactive
67	RPL19P9	0.59	inactive
68	RPL19P9	1.15	inactive
69	H3C8	0.61	inactive
70	H3C8	0.75	inactive
71	H3C8	1.63	inactive
72	H3C8	-0.33	inactive
73	ZNF766	-0.23	inactive
74	ZNF766	-0.13	inactive
75	ZNF766	-0.11	inactive
76	ZNF766	-0.14	inactive
77	POLR2A	-0.1	inactive
78	POLR2A	-0.21	inactive
79	POLR2A	0.4	inactive
80	POLR2A	-0.72	inactive
81	FBXO38	-1.03	inactive
82	FBXO38	-0.64	inactive
83	FBXO38	-1.55	active
84	FBXO38	-1.57	active
85	TMEM215	0.26	inactive
86	TMEM215	1.03	inactive
87	TMEM215	-0.52	inactive
88	TMEM215	1.15	inactive
89	NKX2-5	-0.72	inactive
90	NKX2-5	-0.23	inactive
91	NKX2-5	-0.54	inactive
92	NKX2-5	-0.12	inactive
93	IKZF4	0.44	inactive
94	IKZF4	0.33	inactive
95	IKZF4	0.36	inactive
96	IKZF4	0.76	inactive
97	TIMM9	-1.18	inactive
98	TIMM9	-0.61	inactive
99	TIMM9	0.56	inactive
100	TIMM9	-0.2	inactive
101	SYNE1	-0.49	inactive
102	SYNE1	-0.23	inactive
103	SYNE1	-0.32	inactive
104	SYNE1	-0.7	inactive
105	YY1	-0.11	inactive
106	YY1	0.62	inactive
107	YY1	0.61	inactive
108	YY1	1.16	inactive
109	NEUROD4	0.17	inactive
110	NEUROD4	0.16	inactive
111	NEUROD4	-0.61	inactive
112	NEUROD4	0.47	inactive
